PubChem BioAssay AID1224828, NIAID – 2016

- Aim: 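Find genes required for NF-kappaB p65 moving into the nucleus after LPS in mouse macrophages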 (primary screen)
- Cell system: mouse RAW264.7 G9 macrophage reporter cells (GFP-p65, Tnf promoter-mCherry)
- Reagents: siRNA pool against mouse genes, 100 nM
- Timing: 2 days siRNA transfection, then 40 min LPS before fixation
- Treatment: LPS (Salmonella minnesota R595) at 10 ng/ml
- Measured: 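Microscopy ratio of nuclear to perinuclear-ring GFP-p65 signal, scaled to the plate median; gene score is the average of two replicate robust z-scores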
- Reading the numbers: p65 translocation robust z-score: higher = more nuclear NF-kappaB p65 after LPS than the plate median; nuclear/cytoplasmic p65 ratio: higher = more nuclear NF-kappaB p65
- Rule for the call: 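Called active when z exceeds 3.3 or falls under -1.56 (median of Tlr4 controls), giving activity score of at least 50; no calls for control wells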
- Calls: active = hit (p65 shift raised or lowered); inactive = no clear change
This is one part, drawn at random, of about 17,000 reagents. 762 of them (4.5%) count as active. 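Active calls include both raised and lowered p65 entry, mostly lowered; wells with fewer than 50 cells lack a z-score.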 Raw values vary from plate to plate and are shown uncorrected. Unmarked entries are inactive. The numbers tell different reagents against one gene apart.

With knock-down of Kif15, the record shows p65 translocation robust z-score 0.51; nuclear/cytoplasmic p65 ratio, rep 1 = 1.48; nuclear/cytoplasmic p65 ratio, rep 2 = 1.5; low cell count flag enough cells to score.
Fndc10 gave p65 translocation robust z-score 0.89; nuclear/cytoplasmic p65 ratio, rep 1 = 1.72; nuclear/cytoplasmic p65 ratio, rep 2 = 1.98; low cell count flag enough cells to score.
Knock-down of Kcnq2 came out at: p65 translocation robust z-score -0.15; nuclear/cytoplasmic p65 ratio, rep 1 = 1.44; nuclear/cytoplasmic p65 ratio, rep 2 = 1.38; low cell count flag enough cells to score.
Itgb6 showed p65 translocation robust z-score 0.1; nuclear/cytoplasmic p65 ratio, rep 1 = 1.41; nuclear/cytoplasmic p65 ratio, rep 2 = 1.46; low cell count flag enough cells to score.
Rbm42 scored nuclear/cytoplasmic p65 ratio, rep 1 = 1.54; nuclear/cytoplasmic p65 ratio, rep 2 = 1.5; low cell count flag fewer than 50 cells per well; well left out of scoring.
With knock-down of Hgsnat, the record shows p65 translocation robust z-score 1.01; nuclear/cytoplasmic p65 ratio, rep 1 = 1.79; nuclear/cytoplasmic p65 ratio, rep 2 = 1.62; low cell count flag enough cells to score.
Against Txnrd1, the values are p65 translocation robust z-score -0.03; nuclear/cytoplasmic p65 ratio, rep 1 = 1.53; nuclear/cytoplasmic p65 ratio, rep 2 = 1.31; low cell count flag enough cells to score.
Silencing of Nr2f2 #1 resulted in: nuclear/cytoplasmic p65 ratio, rep 1 = 1.44; nuclear/cytoplasmic p65 ratio, rep 2 = 1.33; low cell count flag fewer than 50 cells per well; well left out of scoring.
Silencing of Nr2f2 #2 gave: p65 translocation robust z-score -0.64; nuclear/cytoplasmic p65 ratio, rep 1 = 1.35; nuclear/cytoplasmic p65 ratio, rep 2 = 1.32; low cell count flag enough cells to score.
With knock-down of Rpl22, the record shows p65 translocation robust z-score -0.32; nuclear/cytoplasmic p65 ratio, rep 1 = 1.41; nuclear/cytoplasmic p65 ratio, rep 2 = 1.16; low cell count flag enough cells to score.
After knock-down of Tceal9 the results were nuclear/cytoplasmic p65 ratio, rep 1 = 1.29; nuclear/cytoplasmic p65 ratio, rep 2 = 1.09; low cell count flag fewer than 50 cells per well; well left out of scoring.
Against Ttc4, the values are p65 translocation robust z-score 0.7; nuclear/cytoplasmic p65 ratio, rep 1 = 1.55; nuclear/cytoplasmic p65 ratio, rep 2 = 1.65; low cell count flag enough cells to score.
Against Uxs1 the deposit lists p65 translocation robust z-score -0.75; nuclear/cytoplasmic p65 ratio, rep 1 = 1.27; nuclear/cytoplasmic p65 ratio, rep 2 = 1.16; low cell count flag enough cells to score.

A few values from the list.
For “p65 translocation robust z-score”, Rpl22 reads -0.32
Txnrd1, nuclear/cytoplasmic p65 ratio, rep 2 = 1.31
Under “p65 translocation robust z-score”, Kif15 is entered as 0.51

More results follow:
Csf3r gave p65 translocation robust z-score -0.96; nuclear/cytoplasmic p65 ratio, rep 1 = 1.34; nuclear/cytoplasmic p65 ratio, rep 2 = 1.26; low cell count flag enough cells to score.
Tbk1 showed p65 translocation robust z-score -0.8; nuclear/cytoplasmic p65 ratio, rep 1 = 1.58; nuclear/cytoplasmic p65 ratio, rep 2 = 1.28; low cell count flag enough cells to score.
For Rbm12b1, the values are nuclear/cytoplasmic p65 ratio, rep 1 = 1.34; nuclear/cytoplasmic p65 ratio, rep 2 = 1.33; low cell count flag fewer than 50 cells per well; well left out of scoring.
Adh5 showed p65 translocation robust z-score -0.27; nuclear/cytoplasmic p65 ratio, rep 1 = 1.61; nuclear/cytoplasmic p65 ratio, rep 2 = 1.55; low cell count flag enough cells to score.
Timm17a showed p65 translocation robust z-score 0.29; nuclear/cytoplasmic p65 ratio, rep 1 = 1.35; nuclear/cytoplasmic p65 ratio, rep 2 = 1.27; low cell count flag enough cells to score.
Silencing of Or4f6 gave: p65 translocation robust z-score 1.97; nuclear/cytoplasmic p65 ratio, rep 1 = 1.9; nuclear/cytoplasmic p65 ratio, rep 2 = 1.43; low cell count flag enough cells to score.
Silencing of Stfa3 resulted in: p65 translocation robust z-score 0.92; nuclear/cytoplasmic p65 ratio, rep 1 = 1.6; nuclear/cytoplasmic p65 ratio, rep 2 = 1.29; low cell count flag enough cells to score.
After knock-down of Rras2, the record shows p65 translocation robust z-score -0.66; nuclear/cytoplasmic p65 ratio, rep 1 = 1.43; nuclear/cytoplasmic p65 ratio, rep 2 = 1.65; low cell count flag enough cells to score.
Knock-down of R3hcc1l resulted in: p65 translocation robust z-score 1.3; nuclear/cytoplasmic p65 ratio, rep 1 = 1.69; nuclear/cytoplasmic p65 ratio, rep 2 = 1.8; low cell count flag enough cells to score.
After knock-down of Mapk1, the record shows p65 translocation robust z-score 0.57; nuclear/cytoplasmic p65 ratio, rep 1 = 1.81; nuclear/cytoplasmic p65 ratio, rep 2 = 1.42; low cell count flag enough cells to score.
Depletion of Nras gave: p65 translocation robust z-score 0.67; nuclear/cytoplasmic p65 ratio, rep 1 = 1.62; nuclear/cytoplasmic p65 ratio, rep 2 = 1.42; low cell count flag enough cells to score.
After knock-down of Or6c8 #1, the record shows p65 translocation robust z-score 0.27; nuclear/cytoplasmic p65 ratio, rep 1 = 1.43; nuclear/cytoplasmic p65 ratio, rep 2 = 1.3; low cell count flag enough cells to score.
For Or6c8 #2 the deposit lists nuclear/cytoplasmic p65 ratio, rep 1 = 1.41; nuclear/cytoplasmic p65 ratio, rep 2 = 1.18; low cell count flag fewer than 50 cells per well; well left out of scoring.
After knock-down of Neu4, the record shows p65 translocation robust z-score -0.22; nuclear/cytoplasmic p65 ratio, rep 1 = 1.77; nuclear/cytoplasmic p65 ratio, rep 2 = 1.54; low cell count flag enough cells to score.
